# Assay: Fluorescence emission spectra of Compound Z in phosphate buffers of pH 4.5 and 7.4
# Format: physicochemical
# Details: ~10^-6 M
compound,measurement,setting,value
CC1(C)C(/C=C/C=C/C=C2/Nc3ccc(S(=O)(=O)O)cc3C2(C)C)=Nc2ccc(C(=O)NCc3ccc4ccc5cccc6ccc3c4c56)cc21 [Compound Z],Cy5 emission at 650-700 nm upon excitation at 343 nm (pyrene),pH 4.5 phosphate buffer,no emission from the Cy5
same,Cy5 emission upon excitation at 633 nm,pH 4.5 phosphate buffer,emission occurs from the Cy5
same,Cy5 emission upon excitation at 633 nm,pH 7.4 buffer,little emission from Cy5
same,energy transfer to Cy5 (signal at 650 nm) upon excitation at 343 nm,pH 7.4 phosphate buffer,no energy transfer to Cy5

# Reference: patent US20030211454A1, “Detection reagent” (priority 2000, published 2003)
